Results are given in words; binding and its absence hold for the method and conditions named. In cells and extracts the contact can be indirect. Some entries that bind do so weakly or less than the wild type.

The target of assay [1] is HPV16 E7 (WT), Flag and HA epitope tagged (human papillomavirus 16) (UniProt P03129). The assay can be described thus: co-IP.
The target in assay [2] is HPV16 E7 E10K variant, Flag and HA epitope tagged (human papillomavirus 16) (UniProt P03129). The assay can be described thus: co-IP.

B1: retinoblastoma tumor suppressor (RB1) (protein, UniProt P06400 1-928)
chain: MPPKTPRKTAATAAAAAAEPPAPPPPPPPEEDPEQDSGPEDLPLVRLEFEETEEPDFTALCQKLKIPDHVRERAWLTWEKVSSVDGVLGGYIQKKKELWGICIFIAAVDLDEMSFTFTELQKNIEISVHKFFNLLKEIDTSTKVDNAMSRLLKKYDVLFALFSKLERTCELIYLTQPSSSISTEINSALVLKVSWITFLLAKGEVLQMEDDLVISFQLMLCVLDYFIKLSPPMLLKEPYKTAVIPINGSPRTPRRGQNRSARIAKQLENDTRIIEVLCKEHECNIDEVKNVYFKNFIPFMNSLGLVTSNGLPEVENLSKRYEEIYLKNKDLDARLFLDHDKTLQTDSIDSFETQRTPRKSNLDEEVNVIPPHTPVRTVMNTIQQLMMILNSASDQPSENLISYFNNCTVNPKESILKRVKDIGYIFKEKFAKAVGQGCVEIGSQRYKLGVRLYYRVMESMLKSEEERLSIQNFSKLLNDNIFHMSLLACALEVVMATYSRSTSQNLDSGTDLSFPWILNVLNLKAFDFYKVIESFIKAEGNLTREMIKHLERCEHRIMESLAWLSDSPLFDLIKQSKDREGPTDHLESACPLNLPLQNNHTAADMYLSPVRSPKKKGSTTRVNSTANAETQATSAFQTQKPLKSTSLSLFYKKVYRLAYLRLNTLCERLLSEHPELEHIIWTLFQHTLQNEYELMRDRHLDQIMMCSMYGICKVKNIDLKFKIIVTAYKDLPHAVQETFKRVLIKEEEYDSIIVFYNSVFMQRLKTNILQYASTRPPTLSPIPHIPRSPYKFPSSPLRIPGGNIYISPLKSPYKISEGLPTPTKMTPRSRILVSIGESFGTSEKFQKINQMVCNSDRVLKRSAEGSNPPKPLKKLRFDIEGSDEADGSKHLPGESKFQQKLAEMTSTRTRMQKQKMNDSMDTSNKEEK
As for B1, the binding entry in assay [1] and in assay [2] was “binds” in each case.

The values above are taken from doi:10.1101/471045.
